This passage reports binding results from PMC3795677.

Assay in all cases: FRET or BRET; spectral-shift FRET by acceptor photobleaching in live E. coli cells co-expressing an mCFP and an mYFP fusion; mYFP bleached 20 s with a 532 nm laser; an increase of the CFP signal of more than 0.5 % counts as a positive FRET pair
(In BRET a luciferase serves as donor, and the signal depends on an acceptor being close.)

Assay [1] addresses T1, EvgS-mYFP (sensory histidine kinase EvgS with C-terminal monomeric yellow fluorescent protein EYFP A206K) (E. coli) (UniProt P30855).
T1 sequence: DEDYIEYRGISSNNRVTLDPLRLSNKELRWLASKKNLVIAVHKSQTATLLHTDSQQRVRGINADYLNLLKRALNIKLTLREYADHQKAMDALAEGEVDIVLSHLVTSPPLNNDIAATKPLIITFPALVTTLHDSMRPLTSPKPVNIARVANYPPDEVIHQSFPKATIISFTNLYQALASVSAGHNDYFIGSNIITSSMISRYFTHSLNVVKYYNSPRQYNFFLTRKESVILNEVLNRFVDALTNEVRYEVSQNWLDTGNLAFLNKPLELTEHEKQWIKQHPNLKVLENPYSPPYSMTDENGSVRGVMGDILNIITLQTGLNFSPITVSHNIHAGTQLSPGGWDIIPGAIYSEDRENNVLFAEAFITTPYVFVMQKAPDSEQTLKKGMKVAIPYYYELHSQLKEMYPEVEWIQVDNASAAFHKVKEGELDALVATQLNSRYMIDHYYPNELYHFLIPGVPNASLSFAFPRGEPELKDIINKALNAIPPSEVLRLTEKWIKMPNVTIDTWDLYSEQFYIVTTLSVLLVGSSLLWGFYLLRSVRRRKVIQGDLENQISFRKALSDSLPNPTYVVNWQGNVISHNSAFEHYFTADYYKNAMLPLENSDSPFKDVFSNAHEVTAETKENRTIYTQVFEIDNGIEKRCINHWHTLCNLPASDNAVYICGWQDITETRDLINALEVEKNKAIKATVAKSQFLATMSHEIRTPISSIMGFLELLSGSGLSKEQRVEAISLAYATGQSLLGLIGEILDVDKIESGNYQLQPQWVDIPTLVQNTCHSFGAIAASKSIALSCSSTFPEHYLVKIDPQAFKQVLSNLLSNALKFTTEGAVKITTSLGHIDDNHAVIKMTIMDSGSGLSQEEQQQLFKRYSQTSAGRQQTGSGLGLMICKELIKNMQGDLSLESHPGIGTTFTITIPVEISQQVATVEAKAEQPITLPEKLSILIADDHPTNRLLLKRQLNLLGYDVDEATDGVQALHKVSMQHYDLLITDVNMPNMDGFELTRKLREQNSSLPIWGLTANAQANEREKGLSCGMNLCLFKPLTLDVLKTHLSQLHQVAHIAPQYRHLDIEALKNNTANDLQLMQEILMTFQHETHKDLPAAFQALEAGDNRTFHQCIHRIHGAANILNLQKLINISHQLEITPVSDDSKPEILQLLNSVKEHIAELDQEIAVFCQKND

In assay [2] the target is T2, TorS-mYFP (sensory histidine kinase TorS with C-terminal monomeric yellow fluorescent protein EYFP A206K) (E. coli) (UniProt P39453).
T2 sequence: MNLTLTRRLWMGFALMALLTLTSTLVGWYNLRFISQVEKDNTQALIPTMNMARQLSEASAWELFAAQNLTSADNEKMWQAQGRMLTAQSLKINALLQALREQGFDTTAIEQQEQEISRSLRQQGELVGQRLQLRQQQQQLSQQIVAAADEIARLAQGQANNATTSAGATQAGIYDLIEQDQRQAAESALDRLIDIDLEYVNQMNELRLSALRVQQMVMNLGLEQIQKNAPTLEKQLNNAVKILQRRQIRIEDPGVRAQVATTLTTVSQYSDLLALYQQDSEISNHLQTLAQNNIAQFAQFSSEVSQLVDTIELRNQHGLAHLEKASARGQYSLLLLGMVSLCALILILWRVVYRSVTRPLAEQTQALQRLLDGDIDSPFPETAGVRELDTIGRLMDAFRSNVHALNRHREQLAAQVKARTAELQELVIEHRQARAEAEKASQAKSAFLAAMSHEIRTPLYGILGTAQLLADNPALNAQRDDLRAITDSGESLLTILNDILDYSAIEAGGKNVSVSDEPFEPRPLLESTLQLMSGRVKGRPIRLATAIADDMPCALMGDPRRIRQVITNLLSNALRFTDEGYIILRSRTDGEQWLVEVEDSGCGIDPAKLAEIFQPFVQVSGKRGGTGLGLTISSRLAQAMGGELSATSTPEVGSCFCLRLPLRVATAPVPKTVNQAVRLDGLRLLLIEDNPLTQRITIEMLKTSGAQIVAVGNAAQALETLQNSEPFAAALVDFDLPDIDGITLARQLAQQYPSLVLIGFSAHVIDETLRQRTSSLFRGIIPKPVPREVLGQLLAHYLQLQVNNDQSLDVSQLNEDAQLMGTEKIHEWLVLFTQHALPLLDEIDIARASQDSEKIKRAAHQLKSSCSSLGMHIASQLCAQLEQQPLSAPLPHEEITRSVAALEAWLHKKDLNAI

Assay [3] concerns the target EvgS-mCFP (EvgS with C-terminal monomeric cyan fluorescent protein ECFP A206K) (E. coli) (UniProt P30855).

No constants are given. Whether binding was seen depends on the method and setting. In cells and extracts the contact can be indirect. For part of these data: Binding can be weak; no strength is given. Sequences can lack the tags named with a protein.

As for “EvgS-mCFP (EvgS with C-terminal monomeric cyan fluorescent protein ECFP A206K) (from UniProt P30855)”, in assay [1], the binding result is given as “binds”. With “TorS-mCFP (TorS with C-terminal monomeric cyan fluorescent protein ECFP A206K) (from UniProt P39453)”, the binding entry in assay [2] is on record as “binds”.

B1: EvgA-mYFP (response regulator EvgA fused to monomeric yellow fluorescent protein) (protein, UniProt P0ACZ4 1-204)
chain: MNAIIIDDHPLAIAAIRNLLIKNDIEILAELTEGGSAVQRVETLKPDIVIIDVDIPGVNGIQVLETLRKRQYSGIIIIVSAKNDHFYGKHCADAGANGFVSKKEGMNNIIAAIEAAKNGYCYFPFSLNRFVGSLTSDQQKLDSLSKQEISVMRYILDGKDNNDIAEKMFISNKTVSTYKSRLMEKLECKSLMDLYTFAQRNKIG
Turning to B1, in assay [3], the binding result is “no binding”.
